# Results taken from US9045470B2, “Compounds and compositions as TLR activity modulators” (IRM LLC, priority 2009, dated 2015).
# At least one read-out could not be matched to a standard name with certainty. For at least one compound, name, drawing or mass did not settle the structure.
# Assay: Desorption from aluminum hydroxide with KH2PO4 and n-butanol extraction, HPLC
# Type: physicochemical
# Conditions: for recovery of compound after desorption from aluminum hydroxide: desorption with 0.5M KH2PO4, no organic solvent extraction
# Method: An organic solvent extraction method was used to evaluate whether compound 1 was covalently bound to aluminum hydroxide. The formulation was prepared as follows: 2 mg/ml aluminum hydroxide, 100 μg/dose compound 1, 10 mM histidine buffer) and the pH was adjusted to 9. A control formulation without aluminum hydroxide was also prepared.
# One ml of the formulation containing Alum was mixed with 1 ml of KH2PO4 1M pH 9 (0.5M final conc, pH 9) and was left in gentle agitation overnight at 37° C. to allow desorption of compound 1 (compound 5) from the aluminum hydroxide via ligand exchange with the phosphate anions. Organic extraction was then performed: 1 ml of each sample was mixed with 1 ml of n-butanol and vortexed. After the formation of 2 phases, the upper phase (butanol) was recovered, dried with N2 and resuspended in MeOH/10 mM NaOH. HPLC analysis was run both for the formulation supernatants and for the butanol extracted samples (C18 column; 0-100% B in 2 min; A=0.1% TFA in H2O; B=0.1% TFA in ACN).
# The adsorption of compound 16 and compound 18 to aluminum hydroxide was also evaluated using the alum formulation described above for compound 1. […] In addition, SDS PAGE analysis of antigen binding in the presence of compound 16 or compound 18 was carried out as described above.
Structure (SMILES),recovery of compound after desorption from aluminum hydroxide,compound in supernatant after addition of aluminum hydroxide (HPLC) (alum formulation as described for compound 1)
"Cc1cc(OCCCC(F)(F)P(=O)(O)O)ccc1CCc1cnc2c(N)nc3cc(CCC(=O)O)ccc3c2c1 [Compound 16, 3-(5-amino-2-(4-(4,4-difluoro-4-phosphonobutoxy)-2-methylphenethyl)benzo[f][1,7]naphthyridin-8-yl)propanoic acid]",recovered after desorption,–
"Cc1cc(OCCOCCOCCOCCP(=O)(O)O)ccc1CCc1cnc2c(N)nc3cc(CCC(=O)O)ccc3c2c1 [Compound 18, 3-(5-amino-2-(2-methyl-4-(2-(2-(2-(2-phosphonoethoxy)ethoxy)ethoxy)ethoxy)phenethyl)benzo[f][1,7]naphthyridin-8-yl)propanoic acid]",recovered after desorption,no compound was observed in the supernatant
